PubChem BioAssay AID743454, Peter MacCallum Cancer Centre, 2014
Aim: 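Search for knock-downs that restore vorinostat killing in resistant colon cancer cells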 (primary screen). System: human HCT116-VR colon cancer cells, selected for vorinostat resistance. Knock-down reagent: siRNA pool against human genes, 40 nM siRNA pool. Time to read-out: vorinostat for 24 h, read-out about 72 h after transfection. Treatment: vorinostat at 2.5 µM final. Detection: 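Two measures, CellTiter-Fluor viability and luminescent caspase 3/7 activity, each as fold change against same-plate mock wells, mean of duplicates, then screen-wide robust z-score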. Scale: viability robust z-score: higher = more viable cells than screen typical; caspase robust z-score: higher = more caspase 3/7 activity than screen typical. Hit rule: 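a knock-down is a hit when classed RV1 or RV2 for lowered viability, or CA1 or CA2 for caspase activation; those lethal without drug were dropped; hits were retested singly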.
This is one part, drawn at random, of about 18,000 reagents. Over the whole deposit, 450 (2.5%) were called active. 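Single biological run; no consistent viability z cut-off exists, so the class columns, not z-scores, define the calls.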 Entries without a mark were called inactive. Reagent sequences are not shown.

gene,viability hit class,caspase hit class,viability robust z-score,caspase robust z-score
CLIP3,no change,no change,0.9,1.21
DGKD,no change,no change,0.2,0.22
SPIDR,no change,no change,0.17,2.13
ECT2,no change,no change,-0.88,2.71
LY6D,no change,no change,0.02,0.2
SDC4,no change,no change,-1.2,1.75
TSSK1B,no change,no change,0.36,1.8
DDT,no change,no change,0.92,-0.62
SNAP91,no change,no change,1.26,-1.23
HOXC9,no change,no change,0.28,2.25
EP300,no change,no change,-1.06,-1.17
SART1,no change,no change,-2.54,-0.22
UBE2D3,no change,no change,-1.59,3.23
MBLAC2,no change,no change,-0.14,4.57
RBBP7,no change,no change,0.15,0.4
ITGAX,no change,no change,0.03,0.22
OSBP2,no change,no change,-0.66,3.14
ADGRL4,no change,no change,-0.72,-0.08
WDR55,no change,no change,-1.17,-0.27
HOXA10,no change,no change,-0.1,0.04
AKR1E2,no change,no change,-0.16,-0.74
EIF2S1,RV2 (reduced viability) (active),no change,-3.27,-0.14
DENND6B,no change,no change,-1.17,2.54
SERHL,no change,no change,1.43,-0.35
POTEA,no change,no change,0.21,-0.48
DCC,no change,no change,-0.25,-0.56
OTOP1,no change,no change,-0.23,-0.43
DEFB113,no change,no change,-0.6,-0.36
ZNF2,no change,no change,0.98,-0.66
GLS,no change,no change,-0.29,0.45
RXYLT1,no change,no change,-0.58,-0.81
COPZ1,no change,no change,-3.11,0.06
BBS1,no change,no change,0.36,-0.34
KRT26,no change,no change,-0.88,-0.11
PVALB,no change,no change,-3.02,0.62
ARHGAP11A,no change,no change,0.7,0.93
ZNF764,no change,no change,0.86,1.84
ZNF585B,no change,no change,-1.44,-0.5
ATP5F1D,no change,no change,0.96,-0.41
MID1,no change,no change,0.42,-0.64
CNOT9,no change,no change,-0.18,-0.36
TULP1,no change,no change,1.58,0.52
RALGAPA2,no change,no change,0.22,-0.52
KNOP1,no change,no change,-0.66,-0.88
PTPRC,no change,no change,0.66,-0.53
SIGLEC15,no change,no change,1.13,0.75
SCN2A,no change,no change,-0.96,-1.27
DNAJB11,no change,no change,-0.26,-1.25
TNNT2,no change,no change,-1.2,-1.34
RNF125,no change,no change,-0.8,0.9
ZRANB1,no change,no change,0.12,-1.25
MRPS9,no change,no change,-1.19,-1.73
RNF8,no change,no change,-0.19,-0.19
LZIC,no change,no change,0.57,-0.83
FSCN1,no change,no change,-0.32,1.22
BRMS1,no change,no change,-2.84,0.08
RASSF2,no change,no change,-2.41,-0.64
SMO,no change,no change,1.44,-0.77
CNPY4,no change,no change,-0.55,-0.81
CNTFR,no change,no change,0.14,1.8
NAT16,no change,no change,-0.04,0.07
ARMH4,no change,no change,1.18,0.55
ETS2-AS1,no change,no change,1.02,0.11
CA9,no change,no change,1.06,0.81
TUT1,no change,no change,-0.6,1.94
YBX1,no change,no change,0.4,0.6
VSIG4,no change,no change,-0.32,0.37
CCDC144NL,no change,no change,1.82,2.34
FBXW8,no change,no change,-0.25,2.06
ENTPD5,no change,no change,-0.77,-1.09
ROS1,no change,no change,-0.03,-0.22
TNNC2,no change,no change,0.24,-0.8
PLAU,no change,no change,-0.44,-0.96
